# No constants are given. Whether binding was seen depends on the method and setting. Some binding calls cover weakened binding; strength is not graded here.
# Sequences of proteins named here, by UniProt entry; tags and fusion partners are left off. A change or cut given only in a name is not applied to a line headed by its entry.
# UniProt P48501: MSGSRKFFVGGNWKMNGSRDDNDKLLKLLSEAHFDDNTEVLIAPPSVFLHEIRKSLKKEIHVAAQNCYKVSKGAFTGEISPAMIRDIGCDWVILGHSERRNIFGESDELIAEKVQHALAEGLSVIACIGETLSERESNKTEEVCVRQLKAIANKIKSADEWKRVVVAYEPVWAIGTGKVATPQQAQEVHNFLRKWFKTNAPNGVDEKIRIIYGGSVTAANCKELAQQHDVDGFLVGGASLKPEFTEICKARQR
# Biological target: Triosephosphate isomerase from Schistosoma mansoni (Schistosoma mansoni) (UniProt P48501)
# Assay: crystal structure; sitting drop; protein 20 mg/ml incubated with 10 mM 2-phosphoglyceric acid in storage buffer; homodimer seen in the crystal; both purified
substance,measurement,value
Triosephosphate isomerase from Schistosoma mansoni (from UniProt P48501 1-253) (enzyme),binding,binds

# Reference: PMC6980832, “Crystal structures of Triosephosphate Isomerases from Taenia solium and Schistosoma mansoni provide insights for vaccine rationale and drug design against helminth parasites” (PLoS Neglected Tropical Diseases, 2020)
